Measurements published in the supplement of paper PMC8858631.
Counter-ions that a name gives are not always drawn. Some of the results follow. Rule as the data show it: active = 0.5 or less and inactive = the rest. Most values come without repeats; read them as rough.

Test system: SK-MEL-28
Assay: EEF2K protein level normalised to actin (western blot) after treatment (ratio (EEF2K/Actin)); higher = more EEF2K protein remaining (less EEF2K suppression)
Details: 5 µM; 24 h

| SMILES | EEF2K protein level normalised to actin |
| --- | --- |
| COc1cc(C2Oc3cc([C@H]4Oc5cc(O)cc(O)c5C(=O)[C@@H]4O)ccc3OC2CO)ccc1O (stereo partly specified) [Silibinin] | inactive: 1.49 |
| CCC[C@@H]1C[C@@H](C(=O)N[C@@H]([C@H]2O[C@H](SC)[C@H](O)[C@@H](O)[C@H]2O)[C@@H](C)O)N(C)C1 [Lincomycin HCl] | inactive: 2.27 |
| Cc1cnc(Nc2ccc(OCCN3CCCC3)cc2)nc1Nc1cccc(S(=O)(=O)NC(C)(C)C)c1 | inactive: 4.37 |
| CNNCc1ccc(C(=O)NC(C)C)cc1 [Procarbazine HCl] | inactive: 0.64 |
| CNC(=O)c1ccccc1Sc1ccc2c(/C=C/c3ccccn3)n[nH]c2c1 [Axitinib] | inactive: 0.64 |
| CS(=O)(=O)CCNCc1ccc(-c2ccc3ncnc(Nc4ccc(OCc5cccc(F)c5)c(Cl)c4)c3c2)o1 | inactive: 0.63 |
| CC[C@@]1(O)C(=O)OCc2c1cc1n(c2=O)Cc2cc3cc(O)ccc3nc2-1 [(S)-10-Hydroxycamptothecin] | inactive: 0.54 |
| CC(C)c1nc(CN(C)C(=O)N[C@@H](CCN2CCOCC2)C(=O)N[C@H](CC[C@H](Cc2ccccc2)NC(=O)OCc2cncs2)Cc2ccccc2)cs1 [Cobicistat (GS-9350)] | inactive: 0.81 |
| CCC(C)n1ncn(-c2ccc(N3CCN(c4ccc(OCC5COC(Cn6cncn6)(c6ccc(Cl)cc6Cl)O5)cc4)CC3)cc2)c1=O (stereo unspecified) [Itraconazole] | inactive: 1.1 |
| CC[C@H](Nc1ncnc2[nH]cnc12)c1nc2cccc(F)c2c(=O)n1-c1ccccc1 [Idelalisib (CAL-101, GS-1101)] | inactive: 2.28 |
| CC1=NN(c2ccc(C)c(C)c2)C(=O)/C1=N\Nc1cccc(-c2cccc(C(=O)O)c2)c1O [Eltrombopag Olamine] | inactive: 2.29 |
| O=C(O)C1CSCN1 (stereo unspecified) [Timonacic] | inactive: 0.87 |
| CC(=O)O[C@]1(C(C)=O)CC[C@H]2[C@@H]3C=C(C)C4=CC(=O)CC[C@]4(C)[C@H]3CC[C@@]21C [Megestrol Acetate] | inactive: 1.12 |
| Cc1cn(-c2cc(NC(=O)c3ccc(C)c(Nc4nccc(-c5cccnc5)n4)c3)cc(C(F)(F)F)c2)cn1 [Nilotinib (AMN-107)] | inactive: 1.06 |
| Cc1nc(Nc2ncc(C(=O)Nc3c(C)cccc3Cl)s2)cc(N2CCN(CCO)CC2)n1 [Dasatinib hydrochloride] | inactive: 1.16 |
| CN(C)C/C=C/C(=O)Nc1cc2c(Nc3ccc(F)c(Cl)c3)ncnc2cc1O[C@H]1CCOC1 [Afatinib (BIBW2992)] | active: 0.19 |

Copied from the list:
EEF2K protein level normalised to actin, `CNC(=O)c1ccccc1Sc1ccc2c(/C=C/c3ccccn3)n[nH]c2c1` [Axitinib] reads inactive: 0.64
EEF2K protein level normalised to actin, `CC(C)c1nc(CN(C)C(=O)N[C@@H](CCN2CCOCC2)C(=O)N[C@H](CC[C@H](Cc2ccccc2)NC(=O)OCc2cncs2)Cc2ccccc2)cs1` [Cobicistat (GS-9350)] reads inactive: 0.81
